Results published in the supplement of paper PMC4604168 (melanoma cell lines).
This is one part of the list. Repeats are few or missing, and single values can be far off.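 Cells were imaged in 1,536-well plates, and nuclei stained with an antibody against cleaved PARP were counted against all DNA-stained nuclei to give the apoptosis fraction. Screening doses were chosen to leave most cells alive, and resting and induced cleaved-PARP levels differ strongly between cell lines.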

These molecules were tested on WM1745 (assay: cleaved PARP positive nuclei fraction relative to DMSO control; melanoma cells; higher = more apoptosis). Conditions: library dose: low library concentration; 72 h.

Row | SMILES | cleaved PARP positive nuclei fraction [%]
1 | CC(=O)c1c(C)c2cnc(Nc3ccc(N4CCNCC4)cn3)nc2n(C2CCCC2)c1=O [palbociclib] + Nc1cccc2c1CN(C1CCC(=O)NC1=O)C2=O [lenalidomide] (first compound 0.04 µM, partner dose 1 µM) | 143
2 | CC(=O)c1c(C)c2cnc(Nc3ccc(N4CCNCC4)cn3)nc2n(C2CCCC2)c1=O [palbociclib] + COc1ccc(Cl)c(Nc2nc3ccccc3nc2NS(=O)(=O)c2cccc(NC(=O)C(C)(C)N)c2)c1 [XL147] (first compound 0.04 µM, partner dose 0.8 µM) | 106
3 | CC(=O)c1c(C)c2cnc(Nc3ccc(N4CCNCC4)cn3)nc2n(C2CCCC2)c1=O [palbociclib] + Cc1nc(Nc2ncc(C(=O)Nc3c(C)cccc3Cl)s2)cc(N2CCN(CCO)CC2)n1 [dasatanib] (first compound 0.04 µM, partner dose 0.004 µM) | 132
4 | C=CCNC1=C2C[C@@H](C)C[C@H](OC)[C@H](O)[C@@H](C)/C=C(\C)[C@H](OC(N)=O)[C@@H](OC)/C=C\C=C(/C)C(=O)NC(=CC1=O)C2=O [Tanespimycin] + COc1ccc(Cl)c(Nc2nc3ccccc3nc2NS(=O)(=O)c2cccc(NC(=O)C(C)(C)N)c2)c1 [XL147] (first compound 0.002 µM, partner dose 0.8 µM) | 108
5 | OCc1c[nH]c2ccccc12 [Indole-3-carbinol] + C#Cc1cccc(Nc2ncnc3cc(OCCOC)c(OCCOC)cc23)c1 [erlotinib] (first compound 0.8 µM, partner dose 0.8 µM) | 110
